At least one structure is not confirmed: it was looked up by name or label, or the drawing left a doubt.
Tested on: isolated rat adipocytes
Experiment: glucose transport (2-deoxyglucose uptake) in isolated rat adipocytes
Type: cell-based
Conditions: B6V10 25 μM, 45 min; wortmannin 2 μM, LY294002 10 μM
Experimental: In order to determine whether salts formed by vanadate and benzylamine could produce an insulin mimetic effect, the effect of increasing concentrations of hexaquis(benzylammonium) decavanadate on glucose transport activity in isolated rat adipocytes was tested. Hexaquis(benzylammonium) decavanadate induced the stimulation of glucose transport which was perceptible from concentrations of 0.5 μM, with a maximal effect observed 2.5 μM and the semimaximal effect above 1 μM. […] The maximum effect provoked by incubation with hexaquis(benzylammonium) decavanadate was greater than that produced by the presence of benzylamine and vanadate in combination (FIG. 1). […] In similar assays, the activity of hexaquis(benzylammonium) decavanadate, pentaquis(benzylammonium) decavanadate and tetraquis(benzylammonium) decavanadate on glucose transport activity in isolated rat adipocytes were analyzed.
To determine the possible insulin mimetic effect of certain vanadium arylalkylamines, the capacity of these compounds to enhance glucose transport in isolated rat adipocytes was tested. […] Subsequently, 2-DG transport was measured over a 5 min. interval.
The effects of the three tested compounds (B6V10, B5V10 and B4V10) were compared. […] 2-DG transport was measured over 5 min. intervals. […]

Row | SMILES | effect on B6V10-induced glucose transport
1 | O=c1cc(N2CCOCC2)oc2c(-c3ccccc3)cccc12 [LY294002, reference compound] | blocked
2 | COC[C@H]1OC(=O)c2coc3c2[C@@]1(C)C1=C(C3=O)[C@@H]2CCC(=O)[C@@]2(C)C[C@H]1OC(C)=O [wortmannin, reference compound] | blocked

— patent publication US20080227809A1, “Arylalkylamine Vanadium (V) Salts for the Treatment and/or Prevention of Diabetes Mellitus” (GENMEDICA THERAPEUTICS SL, priority 2004, published 2008)
